Results on three molecules are retold here after publication PMC6712044.

Chains of the proteins cited; added tags and fusions are not shown.
UniProt Q14145: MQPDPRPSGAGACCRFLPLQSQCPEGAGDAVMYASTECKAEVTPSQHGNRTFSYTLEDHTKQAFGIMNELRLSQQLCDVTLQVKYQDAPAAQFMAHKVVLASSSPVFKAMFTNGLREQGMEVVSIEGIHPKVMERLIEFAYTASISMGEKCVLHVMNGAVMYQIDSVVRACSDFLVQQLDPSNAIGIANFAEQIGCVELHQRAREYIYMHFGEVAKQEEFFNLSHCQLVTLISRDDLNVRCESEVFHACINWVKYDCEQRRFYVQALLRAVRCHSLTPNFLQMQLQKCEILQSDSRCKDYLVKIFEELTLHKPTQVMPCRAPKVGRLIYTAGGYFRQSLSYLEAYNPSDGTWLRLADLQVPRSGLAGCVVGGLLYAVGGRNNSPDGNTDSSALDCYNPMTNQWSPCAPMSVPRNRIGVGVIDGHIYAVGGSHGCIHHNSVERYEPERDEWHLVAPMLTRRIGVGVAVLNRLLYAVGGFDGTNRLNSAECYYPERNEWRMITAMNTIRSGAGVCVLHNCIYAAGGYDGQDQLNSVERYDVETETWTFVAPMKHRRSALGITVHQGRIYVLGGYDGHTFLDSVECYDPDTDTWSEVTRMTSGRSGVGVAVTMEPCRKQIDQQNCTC

The target in assay [1] is T1, HA-PIDD (UniProt Q9HB75).
T1 sequence: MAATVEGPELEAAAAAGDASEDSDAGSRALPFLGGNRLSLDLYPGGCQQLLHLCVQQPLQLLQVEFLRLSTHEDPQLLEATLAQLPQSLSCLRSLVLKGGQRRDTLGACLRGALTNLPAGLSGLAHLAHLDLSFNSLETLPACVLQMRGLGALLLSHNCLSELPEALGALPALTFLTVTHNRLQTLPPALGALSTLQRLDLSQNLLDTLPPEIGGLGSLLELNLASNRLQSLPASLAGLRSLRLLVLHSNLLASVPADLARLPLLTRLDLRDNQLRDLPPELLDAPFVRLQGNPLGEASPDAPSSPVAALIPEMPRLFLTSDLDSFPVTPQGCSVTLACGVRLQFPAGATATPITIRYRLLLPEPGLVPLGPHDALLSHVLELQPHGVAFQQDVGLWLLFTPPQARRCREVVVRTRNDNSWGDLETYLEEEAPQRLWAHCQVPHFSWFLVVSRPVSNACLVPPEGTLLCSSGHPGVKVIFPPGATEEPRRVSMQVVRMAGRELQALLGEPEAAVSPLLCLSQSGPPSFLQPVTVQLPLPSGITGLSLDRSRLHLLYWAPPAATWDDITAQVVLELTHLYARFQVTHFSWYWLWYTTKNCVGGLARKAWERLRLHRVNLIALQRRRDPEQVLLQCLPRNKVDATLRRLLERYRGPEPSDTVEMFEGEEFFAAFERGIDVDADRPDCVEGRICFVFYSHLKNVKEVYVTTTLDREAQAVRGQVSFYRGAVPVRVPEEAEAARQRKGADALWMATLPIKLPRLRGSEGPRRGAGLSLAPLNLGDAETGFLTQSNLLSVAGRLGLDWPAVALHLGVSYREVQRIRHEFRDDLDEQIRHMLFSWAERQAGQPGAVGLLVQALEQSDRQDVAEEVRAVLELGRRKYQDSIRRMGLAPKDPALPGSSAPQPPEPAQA
Description: co-IP; HEK293T cells transiently transfected with FLAG-KEAP1 and HA-PIDD, lysed 48 h after transfection; IP with anti-FLAG or anti-HA on protein G-Sepharose, 2 h at 4 °C, washed three times with PBS; immunoblot.

In assay [2] the target is FLAG-KEAP1 (UniProt Q14145). Described as above.
Assay [3] concerns the target endogenous KEAP1 (human (endogenous in H1299)) (UniProt Q14145). Description: co-IP; endogenous proteins in H1299 NSCLC cell lysate; reciprocal IP with anti-PIDD or anti-KEAP1 on protein G-Sepharose, 2 h at 4 °C, washed three times with PBS; immunoblot. (In general: Immunoblotting shows a protein as a band on a membrane.)

Results are given in words; binding and its absence hold for the method and conditions named. In cells and extracts the contact can be indirect. Some binding calls cover weakened binding; strength is not graded here. For part of these data: Sequences can lack the tags named with a protein.

As to FLAG-KEAP1 (from UniProt Q14145 1-624), the binding entry in assay [1] was “binds”.

B1: HA-PIDD (protein, UniProt Q9HB75 1-910)
chain: T1 sequence
With B1, the binding entry in assay [2] is “binds”.

B2: endogenous PIDD (protein, UniProt Q9HB75 1-910)
chain: T1 sequence
For B2, the binding result in assay [3] is “binds”.
